Source: the supplement of paper PMC10849652
The list shows a part of the results.

Amino acid sequences for entries named in this document (tags omitted). A change or cut given only in a name is not applied to a line headed by its entry.
UniProt Q9Y2G5: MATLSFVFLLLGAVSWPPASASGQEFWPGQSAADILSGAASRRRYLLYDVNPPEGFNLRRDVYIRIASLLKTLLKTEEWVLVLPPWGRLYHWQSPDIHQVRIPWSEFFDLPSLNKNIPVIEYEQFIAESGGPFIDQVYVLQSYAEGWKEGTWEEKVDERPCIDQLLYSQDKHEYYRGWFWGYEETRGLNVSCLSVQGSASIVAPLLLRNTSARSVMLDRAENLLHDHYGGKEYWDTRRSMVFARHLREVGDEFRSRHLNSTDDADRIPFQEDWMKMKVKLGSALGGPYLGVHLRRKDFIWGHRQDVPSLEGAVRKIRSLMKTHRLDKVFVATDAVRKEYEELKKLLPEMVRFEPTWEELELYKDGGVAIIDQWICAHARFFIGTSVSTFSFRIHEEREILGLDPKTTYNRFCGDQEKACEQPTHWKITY
UniProt Q99575: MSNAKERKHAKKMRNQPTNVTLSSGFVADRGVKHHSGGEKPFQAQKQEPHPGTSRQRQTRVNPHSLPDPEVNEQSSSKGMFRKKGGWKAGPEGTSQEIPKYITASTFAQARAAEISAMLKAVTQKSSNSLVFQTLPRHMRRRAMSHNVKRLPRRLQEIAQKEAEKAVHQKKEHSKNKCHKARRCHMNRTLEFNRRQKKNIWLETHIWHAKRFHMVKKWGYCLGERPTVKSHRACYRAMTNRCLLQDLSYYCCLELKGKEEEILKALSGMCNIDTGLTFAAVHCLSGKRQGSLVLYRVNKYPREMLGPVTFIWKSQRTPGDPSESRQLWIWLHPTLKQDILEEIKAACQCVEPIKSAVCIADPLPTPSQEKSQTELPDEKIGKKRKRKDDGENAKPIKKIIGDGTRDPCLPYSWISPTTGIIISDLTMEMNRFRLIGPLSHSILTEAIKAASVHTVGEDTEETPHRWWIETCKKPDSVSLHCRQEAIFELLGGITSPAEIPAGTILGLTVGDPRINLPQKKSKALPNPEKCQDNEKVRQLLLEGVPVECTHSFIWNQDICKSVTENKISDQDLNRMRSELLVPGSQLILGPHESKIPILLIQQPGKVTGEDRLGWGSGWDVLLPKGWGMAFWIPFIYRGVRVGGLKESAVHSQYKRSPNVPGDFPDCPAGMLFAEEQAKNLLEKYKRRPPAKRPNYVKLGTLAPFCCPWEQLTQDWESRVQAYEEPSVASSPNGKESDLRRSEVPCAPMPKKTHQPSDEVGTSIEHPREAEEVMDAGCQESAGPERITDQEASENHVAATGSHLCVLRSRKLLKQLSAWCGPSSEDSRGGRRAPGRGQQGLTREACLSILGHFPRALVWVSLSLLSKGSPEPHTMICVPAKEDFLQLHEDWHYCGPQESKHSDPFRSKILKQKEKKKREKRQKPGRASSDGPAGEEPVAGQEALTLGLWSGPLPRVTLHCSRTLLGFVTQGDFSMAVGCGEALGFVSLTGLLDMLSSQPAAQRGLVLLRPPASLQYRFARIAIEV
UniProt O14802: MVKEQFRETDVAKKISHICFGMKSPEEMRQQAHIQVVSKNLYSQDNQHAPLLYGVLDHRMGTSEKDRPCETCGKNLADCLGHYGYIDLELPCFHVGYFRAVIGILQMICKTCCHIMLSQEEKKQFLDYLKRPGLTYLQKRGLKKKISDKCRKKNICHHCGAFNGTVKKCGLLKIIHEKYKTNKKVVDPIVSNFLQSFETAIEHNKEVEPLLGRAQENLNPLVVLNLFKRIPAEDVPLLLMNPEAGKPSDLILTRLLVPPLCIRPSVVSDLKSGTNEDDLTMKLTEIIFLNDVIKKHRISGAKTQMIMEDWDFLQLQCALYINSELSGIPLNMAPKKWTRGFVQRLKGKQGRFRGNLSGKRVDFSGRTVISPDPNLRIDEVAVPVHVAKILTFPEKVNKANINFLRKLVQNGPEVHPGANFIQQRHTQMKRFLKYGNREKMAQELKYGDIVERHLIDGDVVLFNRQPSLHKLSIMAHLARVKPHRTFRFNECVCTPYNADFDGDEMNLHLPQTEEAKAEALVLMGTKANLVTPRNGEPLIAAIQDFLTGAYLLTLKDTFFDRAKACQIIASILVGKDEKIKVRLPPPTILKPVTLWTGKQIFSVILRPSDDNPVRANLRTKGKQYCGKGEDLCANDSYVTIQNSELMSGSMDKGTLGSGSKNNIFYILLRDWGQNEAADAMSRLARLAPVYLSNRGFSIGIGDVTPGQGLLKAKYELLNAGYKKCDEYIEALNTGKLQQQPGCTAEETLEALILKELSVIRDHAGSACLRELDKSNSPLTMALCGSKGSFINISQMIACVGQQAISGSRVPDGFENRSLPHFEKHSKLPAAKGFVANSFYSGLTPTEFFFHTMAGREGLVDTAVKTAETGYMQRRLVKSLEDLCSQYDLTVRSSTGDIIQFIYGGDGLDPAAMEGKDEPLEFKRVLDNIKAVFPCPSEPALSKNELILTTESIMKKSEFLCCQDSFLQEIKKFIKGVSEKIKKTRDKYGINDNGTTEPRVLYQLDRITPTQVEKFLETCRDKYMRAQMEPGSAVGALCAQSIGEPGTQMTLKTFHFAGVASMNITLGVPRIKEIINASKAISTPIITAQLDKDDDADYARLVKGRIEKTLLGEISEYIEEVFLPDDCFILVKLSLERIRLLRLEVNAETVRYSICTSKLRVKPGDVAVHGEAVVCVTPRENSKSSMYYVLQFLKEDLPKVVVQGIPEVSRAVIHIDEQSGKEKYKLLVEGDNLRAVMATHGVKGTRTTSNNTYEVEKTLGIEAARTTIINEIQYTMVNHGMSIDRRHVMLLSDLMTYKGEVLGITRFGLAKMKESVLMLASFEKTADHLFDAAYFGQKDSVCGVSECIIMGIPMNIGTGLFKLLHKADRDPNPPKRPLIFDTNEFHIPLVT
UniProt Q99541: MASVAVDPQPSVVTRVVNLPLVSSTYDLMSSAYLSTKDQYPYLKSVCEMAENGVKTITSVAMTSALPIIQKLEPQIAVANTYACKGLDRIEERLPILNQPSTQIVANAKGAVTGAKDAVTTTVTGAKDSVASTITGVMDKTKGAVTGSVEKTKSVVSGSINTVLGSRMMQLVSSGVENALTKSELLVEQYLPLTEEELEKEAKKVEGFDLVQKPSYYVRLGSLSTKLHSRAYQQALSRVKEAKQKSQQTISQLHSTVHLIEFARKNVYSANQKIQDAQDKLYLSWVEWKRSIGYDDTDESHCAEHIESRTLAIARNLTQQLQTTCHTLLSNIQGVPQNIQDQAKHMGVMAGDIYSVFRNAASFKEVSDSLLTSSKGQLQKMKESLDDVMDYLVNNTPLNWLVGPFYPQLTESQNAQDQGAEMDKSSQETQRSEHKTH
UniProt Q9HAB8: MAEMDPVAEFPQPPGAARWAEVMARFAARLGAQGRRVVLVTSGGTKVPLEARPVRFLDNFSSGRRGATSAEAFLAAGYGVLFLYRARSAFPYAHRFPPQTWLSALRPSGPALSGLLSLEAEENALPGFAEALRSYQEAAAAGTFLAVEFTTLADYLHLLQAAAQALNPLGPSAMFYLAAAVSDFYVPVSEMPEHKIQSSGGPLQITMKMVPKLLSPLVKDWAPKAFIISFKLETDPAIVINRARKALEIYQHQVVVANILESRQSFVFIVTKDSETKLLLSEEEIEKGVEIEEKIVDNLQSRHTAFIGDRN
UniProt Q9Y535: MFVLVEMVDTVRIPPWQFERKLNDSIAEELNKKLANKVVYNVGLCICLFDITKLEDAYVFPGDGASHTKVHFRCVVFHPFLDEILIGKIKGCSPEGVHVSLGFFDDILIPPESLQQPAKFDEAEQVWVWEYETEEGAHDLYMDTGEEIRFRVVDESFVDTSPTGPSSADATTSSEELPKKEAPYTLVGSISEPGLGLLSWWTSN
UniProt P62937, whole entry, looked up: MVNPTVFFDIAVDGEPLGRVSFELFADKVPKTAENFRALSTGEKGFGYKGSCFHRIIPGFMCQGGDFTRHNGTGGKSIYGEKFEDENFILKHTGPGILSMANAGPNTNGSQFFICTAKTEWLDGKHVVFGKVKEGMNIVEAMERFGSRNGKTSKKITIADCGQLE
UniProt Q10713: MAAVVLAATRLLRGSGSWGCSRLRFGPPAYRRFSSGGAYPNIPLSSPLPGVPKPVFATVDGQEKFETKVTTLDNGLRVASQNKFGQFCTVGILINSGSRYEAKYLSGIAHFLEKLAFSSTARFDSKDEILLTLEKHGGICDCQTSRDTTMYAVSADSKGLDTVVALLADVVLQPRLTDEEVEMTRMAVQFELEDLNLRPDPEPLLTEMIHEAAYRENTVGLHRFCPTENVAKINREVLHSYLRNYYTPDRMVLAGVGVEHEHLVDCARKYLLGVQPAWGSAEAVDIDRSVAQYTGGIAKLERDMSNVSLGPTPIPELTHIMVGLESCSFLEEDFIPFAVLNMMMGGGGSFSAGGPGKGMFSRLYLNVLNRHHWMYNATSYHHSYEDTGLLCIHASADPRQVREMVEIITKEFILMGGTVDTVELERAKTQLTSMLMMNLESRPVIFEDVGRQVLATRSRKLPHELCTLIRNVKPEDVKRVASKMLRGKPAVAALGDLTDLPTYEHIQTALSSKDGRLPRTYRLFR
UniProt Q13136: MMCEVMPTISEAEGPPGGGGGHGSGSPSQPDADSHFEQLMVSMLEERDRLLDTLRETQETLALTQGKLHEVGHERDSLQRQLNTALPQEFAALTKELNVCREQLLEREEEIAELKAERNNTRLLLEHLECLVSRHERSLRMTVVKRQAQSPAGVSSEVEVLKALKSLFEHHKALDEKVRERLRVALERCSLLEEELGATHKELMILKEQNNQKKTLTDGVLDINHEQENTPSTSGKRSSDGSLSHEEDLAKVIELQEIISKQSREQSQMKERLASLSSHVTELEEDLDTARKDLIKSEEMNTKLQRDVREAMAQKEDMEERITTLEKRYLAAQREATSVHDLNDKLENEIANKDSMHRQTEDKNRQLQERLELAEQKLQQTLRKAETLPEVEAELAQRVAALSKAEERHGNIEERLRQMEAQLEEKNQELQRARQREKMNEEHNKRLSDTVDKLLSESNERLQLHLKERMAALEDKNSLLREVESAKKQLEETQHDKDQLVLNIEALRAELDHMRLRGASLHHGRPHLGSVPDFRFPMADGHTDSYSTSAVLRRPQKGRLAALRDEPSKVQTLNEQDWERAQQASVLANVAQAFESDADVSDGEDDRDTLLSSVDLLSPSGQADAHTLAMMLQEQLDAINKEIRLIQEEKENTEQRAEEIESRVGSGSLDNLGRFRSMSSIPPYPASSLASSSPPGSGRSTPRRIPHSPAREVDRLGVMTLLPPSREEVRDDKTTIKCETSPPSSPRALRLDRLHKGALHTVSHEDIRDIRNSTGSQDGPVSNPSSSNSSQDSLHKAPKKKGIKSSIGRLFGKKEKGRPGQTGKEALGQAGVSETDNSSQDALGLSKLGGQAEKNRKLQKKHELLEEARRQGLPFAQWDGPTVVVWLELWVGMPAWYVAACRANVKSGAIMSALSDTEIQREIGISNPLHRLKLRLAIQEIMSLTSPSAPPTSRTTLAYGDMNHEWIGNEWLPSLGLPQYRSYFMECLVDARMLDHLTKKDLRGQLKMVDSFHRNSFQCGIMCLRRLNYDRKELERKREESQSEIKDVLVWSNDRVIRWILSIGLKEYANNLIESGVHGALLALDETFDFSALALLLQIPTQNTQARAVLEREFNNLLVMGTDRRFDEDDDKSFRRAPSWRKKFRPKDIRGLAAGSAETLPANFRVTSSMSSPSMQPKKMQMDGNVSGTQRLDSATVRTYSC
UniProt P29590: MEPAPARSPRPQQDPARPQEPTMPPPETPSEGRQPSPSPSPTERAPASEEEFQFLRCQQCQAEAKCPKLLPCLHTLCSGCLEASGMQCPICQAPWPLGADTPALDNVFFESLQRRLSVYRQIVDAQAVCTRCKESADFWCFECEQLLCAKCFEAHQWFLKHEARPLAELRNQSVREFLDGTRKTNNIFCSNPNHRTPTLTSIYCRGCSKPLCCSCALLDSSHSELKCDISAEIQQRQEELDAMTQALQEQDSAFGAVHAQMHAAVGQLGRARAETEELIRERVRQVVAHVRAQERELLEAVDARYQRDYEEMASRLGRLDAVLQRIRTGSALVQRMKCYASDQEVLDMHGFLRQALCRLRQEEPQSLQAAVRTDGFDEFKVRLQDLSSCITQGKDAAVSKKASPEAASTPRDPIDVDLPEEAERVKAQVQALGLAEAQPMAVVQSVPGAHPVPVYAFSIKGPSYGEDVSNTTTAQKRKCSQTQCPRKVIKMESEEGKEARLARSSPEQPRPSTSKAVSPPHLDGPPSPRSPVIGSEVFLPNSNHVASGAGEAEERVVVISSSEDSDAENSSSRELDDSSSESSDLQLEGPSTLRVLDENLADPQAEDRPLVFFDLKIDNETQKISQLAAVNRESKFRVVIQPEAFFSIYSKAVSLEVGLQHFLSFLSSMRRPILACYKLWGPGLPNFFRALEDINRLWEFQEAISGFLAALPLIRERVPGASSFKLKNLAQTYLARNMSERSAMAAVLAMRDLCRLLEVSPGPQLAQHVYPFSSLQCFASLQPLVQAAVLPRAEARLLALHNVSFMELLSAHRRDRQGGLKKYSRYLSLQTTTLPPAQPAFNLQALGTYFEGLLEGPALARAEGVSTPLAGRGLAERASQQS

Tests used:
Assay in all cases: log2 fold change, soluble protein after heating vs DMSO (PISA); higher = thermal stabilisation; K562 lysate, 10 uM; active = over 0.2 and 3.5 SD of the protein, either way, in both replicates (recomputed)
ibrutinib = compound: C=CC(=O)N1CCC[C@@H](n2nc(-c3ccc(Oc4ccccc4)cc3)c3c(N)ncnc32)C1 [ibrutinib]
Procedure, shortened: (§1)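 Values give the log-two fold change in thermal stability against solvent controls, from duplicates. Crude K562 extract at 1 mg/mL protein, made by dounce homogenisation in PBS pH 7.4 with 1 mM MgCl2, was treated with 10 μM compound for 30 min. After 3 min heating across 48°C-58°C, aliquots were pooled, adjusted to 0.5% NP-40 at 4°C and centrifuged at 21,000xg for 90 min. The supernatant was measured by TMTpro 16plex LC-MS/MS with channel sums equalised.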

[1] = compound: CC(=O)c1cnc2ccc(-c3cc(Cl)c(O)c(Cl)c3)nc2c1N[C@H]1CC[C@H](CN(C)C)CC1
Procedure, shortened: as §1

ralimetinib = compound: CC(C)(C)Cn1c(N)nc2ccc(-c3[nH]c(C(C)(C)C)nc3-c3ccc(F)cc3)nc21 [ralimetinib]
Procedure, shortened: as §1

[2] = compound: CC(C)(O)CC(=O)NCCn1ccc2ncnc(Nc3ccc(Oc4cccc(C(F)(F)F)c4)c(Cl)c3)c21
Procedure, shortened: as §1

[3] = compound: CC(C)C1=C2N=C(C=C(N2N=C1)NCC3=CC=CC=C3)NCCCCCCN
Procedure, shortened: as §1

[4] = compound: CC1=C(C(CC(=O)N1)C2=CC=C(C=C2)C(F)(F)F)C(=O)NC3=C(C=C4C(=C3)C=NN4)F
Procedure, shortened: as §1

[5] = compound: CC1=C(C2=C(C=C1)C(=O)C3=CC=CC=C3N2CCCN)C
Procedure, shortened: as §1

[6] = compound: CC1=C(C=C(C=C1)NC(=O)C2=CC(=CC=C2)C(C)(C)C#N)NC3=CC4=C(C=C3)N=CN(C4=O)C
Procedure, shortened: as §1

[7] = compound: CC1=C(C=C(C=C1)NC(=O)C2=CC(=CC=C2)N(C)C)NC(=O)C3=CC=C(C=C3)O
Procedure, shortened: as §1

[8] = compound: CC1=CC=C(C=C1)SC2=C3C=C(SC3=CN=C2)C(=O)N
Procedure, shortened: as §1

vemurafenib = compound: CCCS(=O)(=O)Nc1ccc(F)c(C(=O)c2c[nH]c3ncc(-c4ccc(Cl)cc4)cc23)c1F [vemurafenib]
Procedure, shortened: as §1

[9] = compound: CCCS(=O)(=O)Nc1ccc(F)c(C(=O)c2c[nH]c3ncc(Cl)cc23)c1F
Procedure, shortened: as §1

barasertib = compound: CCN(CCCOc1ccc2c(Nc3cc(CC(=O)Nc4cccc(F)c4)[nH]n3)ncnc2c1)CCOP(=O)(O)O [barasertib]
Procedure, shortened: as §1

[10] = compound: CC[C@@H]1C(=O)N(C)c2cnc(Nc3ccc(C(=O)NC4CCN(C)CC4)cc3OC)nc2N1C1CCCC1
Procedure, shortened: as §1

volasertib = compound: CC[C@@H]1C(=O)N(C)c2cnc(Nc3ccc(C(=O)N[C@H]4CC[C@H](N5CCN(CC6CC6)CC5)CC4)cc3OC)nc2N1C(C)C [volasertib]
Procedure, shortened: as §1

[11] = compound: CCn1c(C(=O)N(C2CC2)C2CC2)cc2c3c(ncn3C)c(Nc3cc(C)n(C)n3)nc21
Procedure, shortened: as §1

[12] = compound: CCn1cc(-c2ccnc3[nH]c(-c4cccc(CN(C)C)c4)cc23)c(-c2ccc(NC(=O)N(C)C)cc2)n1
Procedure, shortened: as §1

[13] = compound: CN1CCC(CNc2ccc3ncc(-c4cccc(OC(F)(F)F)c4)n3n2)CC1
Procedure, shortened: as §1

saracatinib = compound: CN1CCN(CCOc2cc(OC3CCOCC3)c3c(Nc4c(Cl)ccc5c4OCO5)ncnc3c2)CC1 [saracatinib]
Procedure, shortened: as §1

sotrastaurin = compound: CN1CCN(c2nc(C3=C(c4c[nH]c5ccccc45)C(=O)NC3=O)c3ccccc3n2)CC1 [sotrastaurin]
Procedure, shortened: as §1

Measured: log2 fold change

POT1 (UniProt Q9NUX5)
inactive: ibrutinib 0.045 | [1] -0.018 | ralimetinib 0.015 | [2] -0.033 | [3] -0.073 | [4] -0.092 | [5] -0.058 | [6] 0.043 | [7] -0.078 | [8] -0.013 | vemurafenib 0.07 | [9] -0.062 | barasertib 0.066 | [10] -0.007 | volasertib -0.014 | [11] -0.034 | [12] 0.007 | [13] -0.028 | saracatinib -0.008 | sotrastaurin -0.012

POFUT2 (UniProt Q9Y2G5)
inactive: ibrutinib -0.015 | [1] 0.003 | ralimetinib 0.111 | [2] 0.036 | [3] -0.012 | [4] 0.002 | [5] -0.075 | [6] 0.021 | [7] -0.048 | [8] 0.007 | vemurafenib 0.048 | [9] 0.042 | barasertib 0.028 | [10] -0.044 | volasertib -0.002 | [11] 0.075 | [12] -0.006 | [13] 0.027 | saracatinib 0.017 | sotrastaurin 0.062

PPAN isoform 3 (UniProt Q9NQ55)
inactive: ibrutinib -0.002 | [1] 0.01 | ralimetinib 0.008 | [2] 0.017 | [3] -0.004 | [4] 0.047 | [5] -0.041 | [6] 0.028 | [7] -0.001 | [8] 0.006 | vemurafenib -0.028 | [9] 0.022 | barasertib -0.025 | [10] 0.027 | volasertib -0.004 | [11] 0.015 | [12] -0.113 | [13] 0.018 | saracatinib 0.016 | sotrastaurin 0.001

POP1 (UniProt Q99575)
inactive: ibrutinib 0.045 | [1] -0.021 | ralimetinib -0.005 | [2] -0.044 | [3] -0.049 | [4] 0.01 | [5] -0.017 | [6] 0.032 | [7] -0.005 | [8] -0.001 | vemurafenib 0.006 | [9] 0.024 | barasertib -0.021 | [10] 0.031 | volasertib 0.005 | [11] -0.029 | [12] 0.06 | [13] 0.019 | saracatinib -0.001 | sotrastaurin 0.001

POLR3A (UniProt O14802)
inactive: ibrutinib 0.001 | [1] -0.028 | ralimetinib 0.025 | [2] -0.001 | [3] -0.009 | [4] -0.002 | [5] -0.027 | [6] -0.01 | [7] 0.005 | [8] 0.008 | vemurafenib -0.004 | [9] 0.008 | barasertib 0.017 | [10] -0.031 | volasertib -0.012 | [11] 0.005 | [12] -0.108 | [13] 0.082 | saracatinib 0.014 | sotrastaurin -0.014

PLIN2 (UniProt Q99541)
inactive: ibrutinib 0.015 | [1] 0.031 | ralimetinib -0.014 | [2] -0.022 | [3] -0.001 | [4] 0.069 | [5] -0.007 | [6] 0.016 | [7] 0.025 | [8] 0 | vemurafenib 0.014 | [9] -0.01 | barasertib 0.073 | [10] 0.033 | volasertib 0.003 | [11] 0.048 | [12] 0.033 | [13] -0.181 | saracatinib 0.019 | sotrastaurin 0.007

POFUT1 (UniProt Q9H488)
inactive: ibrutinib 0.012 | [1] 0.025 | ralimetinib 0.001 | [2] -0.013 | [3] -0.004 | [4] -0.007 | [5] 0.043 | [6] -0.032 | [7] -0.006 | [8] 0.018 | vemurafenib -0.037 | [9] 0 | barasertib -0.063 | [10] 0.008 | volasertib -0.012 | [11] -0.024 | [12] -0.013 | [13] 0.022 | saracatinib -0.025 | sotrastaurin 0.024

PLEKHM2 (UniProt Q8IWE5)
inactive: ibrutinib 0.031 | [1] 0.075 | ralimetinib 0.024 | [2] -0.105 | [3] -0.04 | [4] -0.048 | [5] 0.06 | [6] 0.036 | [7] 0.045 | [8] -0.037 | vemurafenib 0.023 | [9] 0.013 | barasertib -0.04 | [10] 0.04 | volasertib -0.017 | [11] -0.022 | [12] 0.044 | [13] -0.049 | saracatinib 0.032 | sotrastaurin 0.046

PPCS (UniProt Q9HAB8)
inactive: ibrutinib 0.029 | [1] 0.028 | ralimetinib 0.027 | [2] -0.004 | [3] -0.069 | [4] 0.001 | [5] 0.013 | [6] 0.026 | [7] -0.024 | [8] 0.022 | vemurafenib 0.084 | [9] 0 | barasertib -0.001 | [10] -0.001 | volasertib -0.014 | [11] -0.017 | [12] -0.009 | [13] 0.005 | saracatinib -0.038 | sotrastaurin -0.028

POLR3H (UniProt Q9Y535)
inactive: ibrutinib -0.022 | [1] 0.035 | ralimetinib 0.048 | [2] 0.068 | [3] 0.016 | [4] -0.149 | [5] -0.01 | [6] 0.009 | [7] -0.017 | [8] -0.062 | vemurafenib -0.023 | [9] 0.049 | barasertib 0.075 | [10] 0.05 | volasertib -0.008 | [11] -0.042 | [12] -0.277 | [13] 0.181 | saracatinib -0.032 | sotrastaurin -0.086

PPIA (UniProt P62937)
inactive: ibrutinib 0.039 | [1] -0.007 | ralimetinib -0.005 | [2] 0.02 | [3] -0.017 | [4] -0.02 | [5] 0.005 | [6] -0.033 | [7] 0.016 | [8] 0.002 | vemurafenib -0.03 | [9] 0.002 | barasertib 0.021 | [10] -0.022 | volasertib -0.001 | [11] 0.01 | [12] 0.028 | [13] -0.011 | saracatinib -0.001 | sotrastaurin 0.001

POLR2B (UniProt P30876)
inactive: ibrutinib -0.011 | [1] -0.017 | ralimetinib 0.025 | [2] -0.018 | [3] 0.005 | [4] 0.029 | [5] -0.031 | [6] -0.014 | [7] 0.028 | [8] 0.032 | vemurafenib 0.021 | [9] -0.004 | barasertib 0.039 | [10] -0.049 | volasertib -0.074 | [11] 0.01 | [12] -0.029 | [13] 0.017 | saracatinib 0.016 | sotrastaurin 0.024

PMPCA (UniProt Q10713)
inactive: ibrutinib -0.052 | [1] -0.023 | ralimetinib 0.006 | [2] -0.038 | [3] -0.047 | [4] -0.043 | [5] -0.041 | [6] 0.033 | [7] -0.036 | [8] 0.015 | vemurafenib 0.047 | [9] 0.037 | barasertib -0.014 | [10] -0.039 | volasertib -0.031 | [11] -0.025 | [12] -0.017 | [13] 0.233 | saracatinib -0.024 | sotrastaurin 0.006

PPFIA1 (UniProt Q13136)
inactive: ibrutinib -0.012 | [1] 0.015 | ralimetinib 0.03 | [2] -0.004 | [3] 0.016 | [4] -0.002 | [5] -0.121 | [6] -0.052 | [7] -0.012 | [8] -0.038 | vemurafenib 0.007 | [9] 0.002 | barasertib -0.007 | [10] 0.021 | volasertib -0.024 | [11] 0.005 | [12] -0.028 | [13] 0.004 | saracatinib 0.016 | sotrastaurin 0.014

Quoted from the entries so far (two entries):
POT1 (UniProt Q9NUX5)
inactive: ibrutinib 0.045 | [1] -0.018 | ralimetinib 0.015 | [2] -0.033 | [3] -0.073 | [4] -0.092 | [5] -0.058 | [6] 0.043 | [7] -0.078 | [8] -0.013 | vemurafenib 0.07 | [9] -0.062 | barasertib 0.066 | [10] -0.007 | volasertib -0.014 | [11] -0.034 | [12] 0.007 | [13] -0.028 | saracatinib -0.008 | sotrastaurin -0.012

POFUT2 (UniProt Q9Y2G5)
inactive: ibrutinib -0.015 | [1] 0.003 | ralimetinib 0.111 | [2] 0.036 | [3] -0.012 | [4] 0.002 | [5] -0.075 | [6] 0.021 | [7] -0.048 | [8] 0.007 | vemurafenib 0.048 | [9] 0.042 | barasertib 0.028 | [10] -0.044 | volasertib -0.002 | [11] 0.075 | [12] -0.006 | [13] 0.027 | saracatinib 0.017 | sotrastaurin 0.062

(list continues)

POGLUT2 (UniProt Q6UW63)
inactive: ibrutinib 0.008 | [1] 0.007 | ralimetinib 0.095 | [2] -0.006 | [3] -0.041 | [4] -0.008 | [5] -0.023 | [6] 0.007 | [7] -0.015 | [8] 0 | vemurafenib 0.074 | [9] 0.007 | barasertib 0.043 | [10] -0.067 | volasertib 0.011 | [11] -0.05 | [12] -0.068 | [13] 0.046 | saracatinib 0.009 | sotrastaurin 0.012

POLG2 (UniProt J3KRM2)
inactive: ibrutinib 0.024 | [1] -0.052 | [3] -0.061 | [4] -0.197 | [8] -0.21 | [9] 0.163 | barasertib 0.084 | volasertib -0.048

PML (UniProt P29590)
inactive: ibrutinib 0.011 | [1] -0.002 | ralimetinib -0.001 | [2] -0.019 | [3] 0.002 | [4] -0.012 | [5] 0.023 | [6] 0.014 | [7] 0.004 | [8] -0.006 | vemurafenib -0.008 | [9] 0.005 | barasertib -0.026 | [10] 0.007 | volasertib 0.01 | [11] -0.015 | [12] -0.052 | [13] 0.033 | saracatinib 0.034 | sotrastaurin -0.008
